Results from article PMC11277477.
These are yes or no findings as the source states them, for the method shown. In cells and extracts the contact can be indirect. Some results given as binding are weak or reduced against the parent protein; the word gives no strength.

Protein sequences, listed by entry. Tags and fused reporters are not part of them.
UniProt B1N4X0: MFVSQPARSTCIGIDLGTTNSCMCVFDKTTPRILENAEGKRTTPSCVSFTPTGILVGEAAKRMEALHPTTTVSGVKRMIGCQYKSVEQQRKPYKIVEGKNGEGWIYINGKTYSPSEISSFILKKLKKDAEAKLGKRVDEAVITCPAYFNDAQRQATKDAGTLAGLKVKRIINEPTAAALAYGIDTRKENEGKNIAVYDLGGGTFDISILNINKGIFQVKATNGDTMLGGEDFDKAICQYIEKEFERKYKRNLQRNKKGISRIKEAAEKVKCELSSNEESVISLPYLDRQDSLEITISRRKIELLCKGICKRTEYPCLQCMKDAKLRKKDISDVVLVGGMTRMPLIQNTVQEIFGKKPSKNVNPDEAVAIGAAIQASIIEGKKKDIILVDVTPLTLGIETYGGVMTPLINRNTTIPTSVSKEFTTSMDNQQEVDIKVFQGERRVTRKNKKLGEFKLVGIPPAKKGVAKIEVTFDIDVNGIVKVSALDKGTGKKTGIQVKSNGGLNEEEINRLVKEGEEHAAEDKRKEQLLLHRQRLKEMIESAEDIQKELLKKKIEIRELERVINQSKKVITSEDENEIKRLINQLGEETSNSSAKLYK
UniProt C4M8X7: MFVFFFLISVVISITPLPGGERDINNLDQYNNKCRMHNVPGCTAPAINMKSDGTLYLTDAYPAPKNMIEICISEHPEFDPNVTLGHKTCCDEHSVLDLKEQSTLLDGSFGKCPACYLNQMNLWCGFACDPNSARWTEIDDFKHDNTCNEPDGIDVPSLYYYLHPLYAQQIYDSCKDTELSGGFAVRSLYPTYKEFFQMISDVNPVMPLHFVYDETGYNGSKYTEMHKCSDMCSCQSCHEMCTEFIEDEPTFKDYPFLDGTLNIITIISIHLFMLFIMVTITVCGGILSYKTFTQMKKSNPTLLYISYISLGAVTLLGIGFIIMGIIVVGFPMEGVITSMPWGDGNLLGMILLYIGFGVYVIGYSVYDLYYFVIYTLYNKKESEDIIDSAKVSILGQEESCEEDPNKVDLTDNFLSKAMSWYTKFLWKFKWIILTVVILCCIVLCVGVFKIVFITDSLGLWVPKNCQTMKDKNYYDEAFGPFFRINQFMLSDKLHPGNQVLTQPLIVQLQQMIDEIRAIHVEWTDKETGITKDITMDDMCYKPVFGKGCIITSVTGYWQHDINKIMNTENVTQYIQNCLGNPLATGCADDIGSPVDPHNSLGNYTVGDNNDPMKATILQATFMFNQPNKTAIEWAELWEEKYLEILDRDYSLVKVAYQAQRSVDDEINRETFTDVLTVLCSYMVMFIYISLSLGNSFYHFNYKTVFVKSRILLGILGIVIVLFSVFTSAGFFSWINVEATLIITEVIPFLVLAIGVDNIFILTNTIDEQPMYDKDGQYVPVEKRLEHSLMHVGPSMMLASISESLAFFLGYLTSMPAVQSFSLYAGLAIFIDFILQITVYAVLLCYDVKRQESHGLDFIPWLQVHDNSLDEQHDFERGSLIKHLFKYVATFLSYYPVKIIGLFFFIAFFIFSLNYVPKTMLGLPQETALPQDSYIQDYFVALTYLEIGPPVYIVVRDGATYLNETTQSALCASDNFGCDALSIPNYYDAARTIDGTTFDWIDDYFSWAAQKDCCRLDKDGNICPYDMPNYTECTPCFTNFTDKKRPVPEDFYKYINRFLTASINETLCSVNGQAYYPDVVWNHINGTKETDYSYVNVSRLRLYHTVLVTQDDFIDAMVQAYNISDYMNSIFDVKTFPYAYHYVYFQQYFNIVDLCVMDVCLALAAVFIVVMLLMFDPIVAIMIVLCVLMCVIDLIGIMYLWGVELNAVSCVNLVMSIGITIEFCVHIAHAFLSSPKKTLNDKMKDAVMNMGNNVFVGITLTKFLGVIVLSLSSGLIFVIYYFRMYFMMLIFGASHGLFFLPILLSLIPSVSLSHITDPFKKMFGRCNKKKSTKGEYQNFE
UniProt C4MAR7: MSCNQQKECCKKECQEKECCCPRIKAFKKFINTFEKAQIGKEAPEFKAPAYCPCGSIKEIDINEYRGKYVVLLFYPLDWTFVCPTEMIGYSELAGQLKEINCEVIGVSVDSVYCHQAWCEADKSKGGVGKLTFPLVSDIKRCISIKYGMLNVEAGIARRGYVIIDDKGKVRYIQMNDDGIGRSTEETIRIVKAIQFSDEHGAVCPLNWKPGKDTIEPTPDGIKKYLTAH

Legend:
[1] = molecular target: GST-Linker recombinant protein (E. histolytica); experiment: pull-down; GST-tagged bait bound to glutathione-Sepharose (200 μg) incubated with total trophozoite lysate (2 mg), 4 h, 4 °C; bound proteins detected by western blot with specific antibodies; only the target purified
[2] = molecular target: GST-Adh recombinant protein (E. histolytica); experiment: as above

Substance | binding [1] | binding [2]
EhHSP70 (EHI_127700) (from UniProt B1N4X0 1-598) | binds | –
EhNPC1 (from UniProt C4M8X7 1-1339) | binds | –
EhPeroxiredoxin (EhPrx) (from UniProt C4MAR7 1-229) (enzyme) | – | binds
